# In PubChem BioAssay AID540256 (National Center for Advancing Translational Sciences (NCATS), 2011):
# The whole screen tested about 300,000 compounds, of which about 3,700 (1.2%) were called active. The shares of active, inactive and inconclusive entries below differ from those in the screen. The call rests on the fitted dose curve; tested in HEK293 cells. Potencies of inconclusive entries are doubtful fits and often do not repeat.
# Test: qHTS for Inhibitors of binding or entry into cells for Lassa Virus; further: nearly all actives have a fitted effect of over 50% in size
# Conditions: Lassa virus pseudotype entry inhibition, cell reporter; activity change, negative = inhibition: at 37.9 µM (top of the series) unless noted
# On the % scale 0 is the no-effect control and ±100 the full control effect; potency means the concentration at half of the fitted maximal effect.
Compound,"activity change, negative = inhibition",Potency
Cc1ccc2[nH]c3c(=O)n(Cc4ccncc4)cnc3c2c1,inactive: 4%,
Cc1ccc(C(=O)Nc2ccc(Nc3ccccc3)cc2)cc1Br,inactive: -5.68%,
COc1ccc(NC(=O)c2ccc3ccccc3n2)cc1S(=O)(=O)N1CCCCC1,,"inconclusive: 25.1 µM [inhibitor, single point]"
CCOc1ccccc1CNC(=O)C1CCN(S(=O)(=O)c2c(C)noc2/C=C/c2ccc(C)cc2)CC1,,"inconclusive: 22.4 µM [activator, single point]"
CSc1ncccc1C(=O)N1CCCC(C(=O)c2ccc3ccccc3c2)C1 (configuration not stated),,active: 11.2 µM
CC(C)C(=O)Nc1ccc(NC(=O)c2ccco2)cn1,inactive: -22%,
Cc1nc(Nc2ccc(C(=O)O)cc2)sc1-c1ccccc1,,"inconclusive: 6.31 µM [inhibitor, partial curve, poor fit]"
CCOc1ccc(CCNC(=O)c2cc(=O)[nH]c3ccc(S(=O)(=O)N4CCCCC4)cc23)cc1OCC,,"inconclusive: 11.2 µM [activator, partial curve, poor fit]"
COc1ccc(/C=C/C(=O)N2CCN(c3ccccc3)CC2)cc1S(=O)(=O)N1CCOCC1,,"inconclusive: 20 µM [inhibitor, single point]"
O=C1C(=O)c2ccccc2C(O)=C1CC=C(Cl)Cl,,active: 3.16 µM
O=C(CCn1nc(-c2ccccc2)ccc1=O)N1CCN(c2ccccc2)CC1,,"inconclusive: 3.98 µM [inhibitor, full curve]"
C=CCn1c(SCC(=O)OCc2ccccc2)nc2c1c(=O)n(C)c(=O)n2C,inactive: -0.0224%,
COc1cccc(N(CC(=O)NC2CCCCC2)C(=O)CCC(=O)Nc2nccs2)c1,inactive: -3.17%,
N=c1n(CCN2CCCCC2)c2ccccc2n1CC(O)c1ccco1 (configuration not stated),,"inconclusive: 12.6 µM [inhibitor, partial curve, poor fit]"
Cc1cccc(N2CCN(C(=O)Cn3cnc4sc(C)c(S(=O)(=O)N5CCN(c6ncccn6)CC5)c4c3=O)CC2C)c1 (configuration not stated),,"inconclusive: 0.562 µM [inhibitor, full curve, poor fit]"
CCC(C)NC(=O)C1CCN(C(=O)c2ccc(-n3ccc4ccccc43)s2)CC1 (configuration not stated),,"inconclusive: 4.47 µM [inhibitor, full curve, poor fit]"
O=C1CC(/C=C/c2cccnc2)=Nc2ccccc2N1,,"inconclusive: 20 µM [inhibitor, partial curve, poor fit]"
CCc1nc2ccc(C(=O)NCc3ccco3)cc2nc1CC,inactive: -8.24%,
COc1ccccc1-c1c(C)nn2c(N3CCC4(CC3)OCCO4)cc(C)nc12,,"inconclusive: 22.4 µM [inhibitor, single point]"
COc1ccc(Nc2nc(N3CCCC3)nc3ccccc23)c(OC)c1,,active: 16.4 µM
NC(=O)c1ccc(N2CCCCCC2)c([N+](=O)[O-])c1,,"inconclusive: 35.5 µM [inhibitor, partial curve, poor fit]"
O=c1[nH]c2ccc(N/C(=N/S(=O)(=O)c3ccccc3)c3ccccc3)cc2[nH]1,,"inconclusive: 6.31 µM [inhibitor, single point]"
Cc1ccc(-n2nc(C(=O)N3CCOCC3)cc2-c2ccc(Cl)cc2)cc1,,"inconclusive: 7.08 µM [inhibitor, partial curve]"

Compound,"activity change, negative = inhibition",Potency
CCN(CC)C(=O)Oc1ccc2ccccc2c1Br,,"inconclusive: 5.62 µM [inhibitor, full curve, poor fit]"
O=C(c1ccc2oc(CCCc3ccccc3)nc2c1)N1CCCC1,,"inconclusive: 1 µM [inhibitor, full curve, poor fit]"
CCOC(=O)c1cccc(NC(=O)N2CC(CC)Sc3ccccc32)c1 (configuration not stated),,"inconclusive: 22.4 µM [inhibitor, single point]"
COC(=O)CSc1nnc(COc2ccc([N+](=O)[O-])cc2)n1C,inactive: 33% [at 46.1 µM],
COc1cccc(CNCCc2c[nH]c3ccccc23)c1OCc1ccccc1,,"inconclusive: 35.5 µM [inhibitor, partial curve, poor fit]"
CCc1cc(C(=O)N/N=C/c2ccc(OC)cc2)c2ccccc2n1,,"inconclusive: 6.31 µM [inhibitor, single point]"
Cc1ccc(-c2nnc(Sc3nc4ccccc4o3)c3ccccc23)cc1,inactive: 3.39%,
O=C(Nc1cccc(-c2nc3ccccc3s2)c1)C1=COCCO1,,"inconclusive: 2.91 µM [activator, full curve, poor fit]"
CN1N=C2c3ccccc3CCC2C1c1ccc(Cl)cc1 (configuration not stated),,"inconclusive: 11.2 µM [activator, partial curve, poor fit]"
COC(=O)c1cccc(Nc2c3c(nc4ccccc24)CCC3)c1,,"inconclusive: 8.91 µM [inhibitor, partial curve, poor fit]"
CCn1ccnc1CN(C)Cc1c(C(=O)N2CCCCCCC2)nc2ccc(Cl)cn12,,"inconclusive: 0.0891 µM [inhibitor, full curve, poor fit]"
CCCCN(C(=O)c1ccc(S(=O)(=O)N2CCOCC2)cc1)C1CCS(=O)(=O)C1 (configuration not stated),,"inconclusive: 0.251 µM [inhibitor, full curve, poor fit]"
O=C(Cc1ccccc1Cl)N1CCOCC1,inactive: 3.06% [at 46.1 µM],
CC(C)c1ccc(NC2=CC(=O)CC(C)(C)C2)cc1,,"inconclusive: 15.8 µM [inhibitor, single point]"
CCc1nnc(NC(=O)CSc2nnc(COc3ccc(C)cc3)n2-c2ccccc2)s1,inactive: 14.1%,
Cc1ccccc1C(=O)Nc1ccc2nc(Nc3cccc(C(F)(F)F)c3)cc(C)c2c1,inactive: -24% [at 46.1 µM],
N#CC(c1ccc(Cl)cc1)c1ccc(Cl)nn1 (configuration not stated),inactive: 12.8%,
Cc1cc(C)n(-c2ccc(C(=O)NCc3ccc4c(c3)OCO4)cc2)n1,inactive: -16.5%,
C=CCNC(=O)/C=C/c1ccc(C(C)C)cc1,,"inconclusive: 29.1 µM [inhibitor, single point]"
O=C(C1COc2ccccc2O1)N1CCN(S(=O)(=O)c2ccccc2)CC1 (configuration not stated),,"inconclusive: 15.8 µM [inhibitor, single point]"
Cc1noc(C)c1C(=O)Nc1sc2c(c1C(N)=O)CCCCC2,,"inconclusive: 0.116 µM [activator, full curve, poor fit]"
Cn1c(SCC(=O)NCc2cccs2)nnc1-c1ccncc1,inactive: 5.72%,
CCOC(=O)N/N=C(\C)c1ccccc1OC(F)F,,"inconclusive: 0.164 µM [inhibitor, full curve, poor fit]"

Compound,"activity change, negative = inhibition",Potency
Cc1ccc(Nc2cc(C)nc3ncnn23)c(C)c1,,"inconclusive: 0.447 µM [activator, partial curve, poor fit]"
O=C(N/N=C/c1cccc([N+](=O)[O-])c1)C1CC1c1ccccc1 (configuration not stated),,active: 2.24 µM
COC1=C[C@H](C(=O)NCc2ccccn2)[C@H](C)[C@@H](c2ccccc2)CC1=O,,"inconclusive: 0.006 µM [inhibitor, full curve, poor fit]"
CCN(CC(=O)Nc1ccc(NC(C)=O)cc1)C(=O)CCCOc1ccc(C(C)(C)C)cc1,,"inconclusive: 12.6 µM [inhibitor, partial curve, poor fit]"
Cc1ccc(N(Cc2ccccc2)C(=O)c2ccc(Cl)c(S(=O)(=O)N3CCOCC3)c2)cc1,,"inconclusive: 7.94 µM [inhibitor, partial curve, poor fit]"
O=C(NCC(=O)N(c1ccc(F)cc1)C(C(=O)NC1CCCCC1)c1cccnc1)c1ccco1 (configuration not stated),,"inconclusive: 6.31 µM [inhibitor, single point]"
O=C(O)c1cc(-c2ccco2)nc2ccc(Br)cc12,,inactive
CC(=O)Nc1ccc(S(=O)(=O)NCc2ccc(C(=O)NCc3ccc(Cl)cc3)cc2)cc1,,"inconclusive: 5.01 µM [inhibitor, single point]"
O=C(O)COn1c(-c2ccc(Cl)cc2)nc2ccc(Cl)cc21,inactive: 1.74%,
COC(=O)C(Cc1ccc(OC(=O)c2ccc(Cl)cc2)cc1)N1Cc2ccccc2C1=O (configuration not stated),inactive: 9.44%,
COc1ccccc1Nc1c2c(nc3ccc(NC(=O)c4cccc(OC)c4OC)cc13)CCCC2,,active: 7.94 µM
O=C(Nc1cccc(C(=O)N2CCN(c3ccccc3F)CC2)c1)c1nsc2ccccc12,inactive: 9.92% [at 46.1 µM],
CN(Cc1ccccc1F)C(=O)c1cccc(NC(=O)CC2SC(N3CCCCC3)=NC2=O)c1 (configuration not stated),,"inconclusive: 35.5 µM [inhibitor, single point]"
CNC(=S)NNC(=O)c1ccc(=O)n(Cc2cccc(C(F)(F)F)c2)c1,,"inconclusive: 17.8 µM [inhibitor, partial curve, poor fit]"
CCc1ccc(NC(=O)Cn2ncc3c(C)n(Cc4cccc(Cl)c4)c(C)c3c2=O)cc1,,"inconclusive: 2.82 µM [activator, partial curve, poor fit]"
CN(C)CCNC(=O)CN1C(=O)CCn2nc(-c3cn(C)c4ccccc34)cc21,inactive: 25.2% [at 46.1 µM],
CCOc1ccc(C(=O)CCC(=O)N2CCN(c3ccccc3O)CC2)cc1,,"inconclusive: 17.8 µM [inhibitor, single point]"
Cn1c(C(=O)NCCN2CCc3ccccc3C2)cc2c(=O)[nH]c3ccccc3c21,,active: 0.92 µM
COc1ccc(O)c(/C=N/NC(=O)c2ccc(N3CCCC3=O)cc2)c1,,"inconclusive: 35.5 µM [inhibitor, single point]"
COc1cccc(CNC(=O)c2ccc(-c3nc(CS(=O)(=O)c4ccccc4)c(C)o3)cc2)c1,,"inconclusive: 3.98 µM [inhibitor, partial curve]"
C=CCN1C(c2ccc(Br)cc2)=CS/C1=C(\C#N)c1nnc(N2CCOCC2)n1-c1ccccc1,,"inconclusive: 14.1 µM [inhibitor, partial curve, poor fit]"

# Part of the list above, as tab-separated lines.
Compound	activity change, negative = inhibition	Potency
O=C(O)c1cc(-c2ccco2)nc2ccc(Br)cc12		inactive
CC(=O)Nc1ccc(S(=O)(=O)NCc2ccc(C(=O)NCc3ccc(Cl)cc3)cc2)cc1		inconclusive: 5.01 µM [inhibitor, single point]

# Not a retest: entries from further up.
Compound,"activity change, negative = inhibition",Potency
COc1cccc(CNCCc2c[nH]c3ccccc23)c1OCc1ccccc1,,"inconclusive: 35.5 µM [inhibitor, partial curve, poor fit]"
CCc1cc(C(=O)N/N=C/c2ccc(OC)cc2)c2ccccc2n1,,"inconclusive: 6.31 µM [inhibitor, single point]"
